The source of these data is PubChem BioAssay AID1471 (National Center for Advancing Translational Sciences (NCATS), 2008).

Out of some 230,000 compounds screened, about 310 (0.13%) were called active. Not shown: some 2% with an inconclusive outcome. Calls come from the whole dose curve; as a rule, active = well fitted activation curve with a large enough effect; inconclusive = small, poorly fitted or top-dose-only effect; inactive = no such curve, though single readings can be large or run the other way. Only a part is listed here, and it is no random draw. The source gives no active or inactive call for entries shown without one. Residues, ends and D or L forms follow the SMILES beside them. *: point of attachment. Cbz = O=C(OCc1ccccc1)*; CH2F = FC*
Potency is the fitted concentration of half-maximal effect.

The experiment can be described thus: qHTS Multiplex Assay to Identify Dual Action Probes in a Cell Model of Huntington: Cytoprotection (ATP).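 For cytoprotection (ATP increase): toxic huntingtin expression switched on by the ecdysone agonist tebufenozide; % of control where 0% means no effect.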 Note: nearly all actives have a fitted effect of over 45% in size. To be noted: PC12 HTT-Q103 induced, ATP luminescence, 40 h; cytoprotection (ATP increase): at 56.4 µM (top of the series) unless noted. An outline of the steps:
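Stable PC12 Q103-GFP cells in serum-supplemented, phenol red-free DMEM; induction by tebufenozide at 100 nM final; compound dose series; cell viability quantified luminescently from ATP.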
As for `CCN(CC)CCNC(=O)CSc1c2c(nc3cc(Cl)ccc13)CCCC2`, the cytoprotection (ATP increase) is -150%. For `Cc1nnc(SCC2=C(C(=O)O)N3C(=O)C(NC(=O)Cn4cnnn4)[C@@H]3SC2)s1` (stereo not given in full), the cytoprotection (ATP increase) is -35.1%. Consider `O=C(c1ccncc1)N(c1ccc2oc3c(c2c1)CCCC3)S(=O)(=O)c1cccc([N+](=O)[O-])c1`, for which the cytoprotection (ATP increase) came out at 135% [at 10 µM]. The same measure, in the same setting: the value for `COC(=O)C[C@H](NC(=O)[C@H](C)NC(=O)[C@@H](NC(=O)OCc1ccccc1)C(C)C)C(=O)CF` (Cbz-Val-Ala-Asp(OMe)-CH2F) was 89.7%; that for `C=Cc1c(C)c2cc3[nH]c(cc4nc(cc5nc(cc1[nH]2)C(C)=C5CCC(=O)O)C(CCC(=O)O)=C4C)c(C)c3C=C` was -77.1%. Consider `COc1ccc(/C=N/Nc2ncc(Br)cn2)c(OC)c1`, for which the Potency is active: 3.55 µM. For `CCCCN(C(=O)/C=C/c1ccco1)c1c(N)n(CCC)c(=O)[nH]c1=O`, the cytoprotection (ATP increase) was 201% [at 10 µM].

On to `Cn1c(N)c(C(=O)COC(=O)c2ccc(Cl)nc2)c(=O)n(C)c1=O`, for which the Potency is active: 3.16 µM. As for `OCc1ccccc1O[C@H]1OC(CO)C(O)C(O)C1O` (stereo not given in full), the cytoprotection (ATP increase) was -9.91%. On the same count and under the same terms, then `CCN(C(=O)COC(=O)c1ccc(Cl)nc1)C1CCS(=O)(=O)C1` (stereo not given), with -32.2%.

`COCCn1nc2cc(C(=O)NCc3cc(C(F)(F)F)cc(C(F)(F)F)c3)ccc2c1OC`: the Potency is active: 0.708 µM. As to `O=C(c1nc2nc(-c3ccccc3)cc(C(F)(F)F)n2n1)N1CCOCC1`, the cytoprotection (ATP increase) was 328% [at 10 µM]. Take `c1cnc2c(-c3nccc4c3[nH]c3ccccc34)cccc2c1`: the cytoprotection (ATP increase) is -18.7%. In the case of `Cc1cc2oc(=O)cc(-c3ccccc3)c2c(C)c1-c1ccc(O)cc1`, the cytoprotection (ATP increase) was determined as 63.2%. Consider `C=C(C(C)=O)C(O)c1ccc([N+](=O)[O-])cc1` (stereo not given), for which the cytoprotection (ATP increase) was -361%.

Regarding `Cc1cc(NC(=O)c2ccc(S(=O)(=O)N(C)CC3CCCO3)cc2)no1` (stereo not given), the cytoprotection (ATP increase) is -40.8%. With `O=C1OCCN1C(=O)[C@H]1[C@H](c2ccc(F)cc2)C(c2ccc(F)cc2)=NN1c1ccccc1`, the cytoprotection (ATP increase) was -96.4%. Turning to `O=C(C[n+]1ccc(Cc2ccccc2)cc1)Nc1ccc([N+](=O)[O-])cc1Cl`, the cytoprotection (ATP increase) stood at 387% [at 10 µM]. On the same count and under the same terms, then `C[C@@](N)(Cc1ccc(O)c(O)c1)C(=O)O`, with -47%. As for `CCOC(=O)c1c(NC(=O)C2=C(C)NC(=S)NC2c2ccc(F)cc2)sc(C)c1C` (stereo not given), the cytoprotection (ATP increase) came out at 212% [at 10 µM]. Turning to `COC(=O)c1[nH]c(=O)c2ccccc2c1O`, the cytoprotection (ATP increase) was 335% [at 10 µM]. Regarding `CCN(C(=O)CSc1nc2cc(Cl)ccc2c(=O)n1Cc1ccco1)C1CCS(=O)(=O)C1` (stereo not given), the Potency is active: 2.82 µM. Regarding `Cn1cnc2c1c(=O)[nH]c(=O)n2C`, the cytoprotection (ATP increase) is -41.1%.

`COCC1=C2c3ccccc3[C@H](C[N+](=O)[O-])C(C(=O)OC)(C(=O)OC)CC2C2C(=O)N(c3ccccc3)C(=O)C2C1` (stereo not given in full): the cytoprotection (ATP increase) was 28.3%. As for `CC(C)OC(=O)[C@@H]1CC[C@H](C)[C@@H](CCC[C@@H]2CC=C[C@H](CC#N)O2)O1`, the cytoprotection (ATP increase) is -33.5%. Same read-out and setting: then `CC(=O)N[C@H](Cc1c[nH]c2ccccc12)C(N)=O`, with -34%; and `C=C1C(=O)C23C(O)C1CCC2[C@]12COC3(O)C(O)C1C(C)(C)CC[C@H]2O` (stereo not given in full), with -338%; and `CCC(=O)OC1(C)C(=O)C=C2C=C(c3ccc(C#N)cc3)OC=C2C1=O` (stereo not given), with -32.1%. `O=S(=O)(c1cccc(S(=O)(=O)N2CCN(c3ncccn3)CC2)c1)N1CCOCC1`: the cytoprotection (ATP increase) was determined as 311% [at 10 µM]. With `OC[C@@H]1[C@@H](c2ccc(F)cc2)C(c2ccccc2)=NN1c1ccccc1`, the cytoprotection (ATP increase) was -233%.

As for `Cc1csc(NC(=O)C2CC(=O)N(Cc3ccco3)C2)n1` (stereo not given), the Potency is active: 1.12 µM.

On to `NC(=O)COC(=O)CCSc1ccc(Cl)cc1`, for which the Potency was active: 14.1 µM. Turning to `Clc1ccc(N=c2ssnc2Cl)cc1`, the cytoprotection (ATP increase) amounted to 322% [at 10 µM]. Turning to `CC[C@H](C)[C@@H](NC(=O)O[C@H]1C(=O)c2ccc(OC)cc2O[C@@H]1c1ccc2c(c1)OCO2)C(=O)OC`, the cytoprotection (ATP increase) is -6.34%. As for `Cc1ccc(OCC(=O)N2CCN(C(=O)c3ccncc3)CC2)cc1`, the cytoprotection (ATP increase) was 338% [at 10 µM]. Turning to `COC(=O)Nc1nc2ccc(Sc3ccccc3)cc2[nH]1`, the cytoprotection (ATP increase) was -220%. For the compound `CCc1nc(N)nc(N)c1-c1ccc(Cl)cc1`, the cytoprotection (ATP increase) is -97.6%. On the same count and under the same terms, then `O=C(Nc1ccc(F)cc1)c1ccc2nc[nH]c2c1`, with 165% [at 10 µM]; and `Cc1ccc2nc3cc([N+](=O)[O-])cc([N+](=O)[O-])c3cc2c1`, with 79.4%. As for `C=C[C@@]1(C)CC(=O)[C@@]2(O)[C@@]3(C)[C@@H](O)CCC(C)(C)[C@@H]3[C@H](OC(=O)CCN(C)C)[C@H](OC(C)=O)[C@@]2(C)O1`, the Potency is active: 39.8 µM. On to `CC(C)(C)c1ccc(C(=O)N2CCC(=O)N([C@H](COCc3ccc(Cl)cc3)Cc3ccccc3)CC2)cc1`, for which the cytoprotection (ATP increase) is -145% [at 40.3 µM]. For `O=C(COC(=O)CCSc1ccc(Cl)cc1)NCc1ccccc1Cl`, the cytoprotection (ATP increase) amounted to 177% [at 10 µM]. `CC(=O)Oc1cc(-c2coc3cc(OC(C)=O)c(OC(C)=O)c(OC(C)=O)c3c2=O)cc(OC(C)=O)c1OC(C)=O`: the cytoprotection (ATP increase) was -65.6%. As for `COCCn1c(N2CCN(c3ccccc3)CC2)nc2c1c(=O)n(C)c(=O)n2C`, the Potency is active: 2 µM. In the case of `C=CCOc1ccc(Cl)cc1CNC1CCCC1`, the Potency was active: 22.4 µM.
